No constants are given. Whether binding was seen depends on the method and setting. Binding can be weak; no strength is given. For some assays here: Binding seen in cells or lysates may run through a third protein. For some assays here: Where a sequence is shown, tags or fusion partners need not be part of it.

By UniProt entry, the sequences of proteins in these tests, tags left out. Where a name states a change or a piece, a line headed by the entry shows the natural chain unless it says otherwise.
UniProt Q4JAX6: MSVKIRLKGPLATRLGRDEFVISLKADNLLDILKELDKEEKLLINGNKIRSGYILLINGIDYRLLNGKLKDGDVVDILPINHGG
UniProt Q4JAY3: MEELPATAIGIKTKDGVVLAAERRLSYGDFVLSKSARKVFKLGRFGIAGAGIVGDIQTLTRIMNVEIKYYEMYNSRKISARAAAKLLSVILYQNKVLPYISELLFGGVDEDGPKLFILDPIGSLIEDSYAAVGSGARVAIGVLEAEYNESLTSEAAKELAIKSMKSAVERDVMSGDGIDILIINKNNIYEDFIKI
UniProt Q4JC81: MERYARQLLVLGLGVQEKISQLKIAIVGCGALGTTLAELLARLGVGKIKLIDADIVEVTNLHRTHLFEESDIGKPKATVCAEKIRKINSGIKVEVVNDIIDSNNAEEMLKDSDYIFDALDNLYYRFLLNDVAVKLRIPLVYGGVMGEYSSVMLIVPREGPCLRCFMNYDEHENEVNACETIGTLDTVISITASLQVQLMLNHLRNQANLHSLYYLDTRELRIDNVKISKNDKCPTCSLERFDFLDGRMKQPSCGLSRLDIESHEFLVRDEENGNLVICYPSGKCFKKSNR

In assay [1] the target is N-terminally His-tagged Urm1 (Saci0669) of S. acidocaldarius (S. acidocaldarius) (UniProt Q4JAX6). Nature of the assay: pull-down; 30 μg N-terminally His-tagged Urm1 and 90 μg untagged ELSA/Uba4p/ThiF incubated at 70 °C for 1 h with or without 2.5 mM ATP, retrieved on Ni-NTA agarose; Coomassie gel and anti-His blot; both purified.
Assay [2] has as its target Saci0662 20S proteasome β-subunit with its N-terminal pro-peptide, C-terminally His-tagged (S. acidocaldarius) (UniProt Q4JAY3). Kind of assay: co-purification on Ni-NTA IMAC after co-expression; untagged Saci0613 α co-expressed in E. coli with one C-terminally His-tagged β-subunit (full or ΔN); Ni-NTA agarose IMAC of the heat-clarified lysate.

For the molecule “ELSA/Uba4p/ThiF E1-like enzyme (Saci0179) of S. acidocaldarius, untagged (from UniProt Q4JC81)”, in assay [1], the binding result is “binds”.

B1: Saci0613 20S proteasome α-subunit, untagged (natural protein, S. acidocaldarius, UniProt Q4JB24 1-242, looked up)
chain: MALGPAAMGYDRAITIFSPDGSLYQVDYAFEAVKRGWTTLGVKTKSGVVLLAEKRKATQLLDVDGIEKIFMLDDHVGCTFAGLASDGRILIDYARSQALQHRLIYDEPISIEYLTKVISDVKQAYTQHGGVRPFGVALIVGGIDKGKQPKLLMTEPSGQFMPYYAVAIGQGGYTATEYLEKNYKEDLDIQSTILLALRALMATLKPGEKLNYSSVEIGYADVDSGTFKKLTTEERSDLLQKI
notes: 20S proteasome α-subunit, S. acidocaldarius DSM639, Saci0613; also called Saci0613 α; 0613 α-subunit; source: E. coli Rosetta (DE3) pLysS, co-expressed with β-subunit(s); in heat-clarified lysate, and purified as part of the complex (Ni-NTA IMAC, size exclusion chromatography)
Take B1: in assay [2], the binding result is “binds”.
